# Results from PubChem BioAssay AID1671190 (National Center for Advancing Translational Sciences (NCATS), 2021).
# Amino acid sequences for entries named in this document (tags omitted). A change or cut given only in a name is not applied to a line headed by its entry.
# UniProt P18054: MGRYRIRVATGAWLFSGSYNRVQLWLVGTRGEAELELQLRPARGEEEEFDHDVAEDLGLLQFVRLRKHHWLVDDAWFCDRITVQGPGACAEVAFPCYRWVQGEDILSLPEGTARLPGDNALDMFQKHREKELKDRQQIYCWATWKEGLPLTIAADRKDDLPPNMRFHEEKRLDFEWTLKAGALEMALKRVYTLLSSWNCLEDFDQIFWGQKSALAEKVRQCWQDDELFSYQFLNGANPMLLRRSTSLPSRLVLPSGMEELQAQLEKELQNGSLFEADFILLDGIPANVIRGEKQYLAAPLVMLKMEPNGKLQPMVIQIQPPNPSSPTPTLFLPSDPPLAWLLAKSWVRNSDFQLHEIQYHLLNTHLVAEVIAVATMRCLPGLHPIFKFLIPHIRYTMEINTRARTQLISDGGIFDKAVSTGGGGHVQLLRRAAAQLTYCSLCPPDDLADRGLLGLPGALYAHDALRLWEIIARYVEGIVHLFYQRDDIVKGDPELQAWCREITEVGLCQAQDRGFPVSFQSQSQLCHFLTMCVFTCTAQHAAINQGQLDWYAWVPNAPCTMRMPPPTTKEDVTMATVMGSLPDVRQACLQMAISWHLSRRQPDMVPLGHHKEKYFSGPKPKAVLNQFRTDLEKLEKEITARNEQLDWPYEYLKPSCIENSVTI
# “And” between values parts separate entries of the source, which are not always exact repeats. Identical values can stand only once. The campaign covered roughly 580,000 compounds. About 6,100 (1.1%) were called active. Inconclusive means that the source gave no clear call. Such entries were picked first, then a sample of the others. Calls come from the whole dose curve; as a rule, active = well fitted inhibition curve with a large enough effect; inconclusive = small, poorly fitted or top-dose-only effect, or another doubt; inactive = no such curve, though single readings can be large or run the other way. Where the call is inconclusive, the potency comes from a doubtful curve fit.
# Target: Polyunsaturated fatty acid lipoxygenase ALOX12 (Homo sapiens) (UniProt P18054)
# Experiment: Primary qHTS assay for inhibitors of human arachidonate 12S-lipoxygenase (ALOX12): Round 2
# Conditions: purified 12hLO, xylenol orange hydroperoxide absorbance; activity change, negative = inhibition: at 108 µM (top of the series) unless noted
# Procedure, shortened: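 Hydroperoxide product was detected by ferrous iron/xylenol orange as the 573 to 405 nm absorbance ratio. Arachidonic acid at 40 uM (final) was turned over for 30 min at room temperature by 150 nM human 12hLO, pH 7.0 Hepes buffer, after 15 min compound preincubation.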
# % is set by controls: 0 for no effect and ±100 for the full control effect; potency is the fitted concentration of half-maximal effect.
Structure (SMILES),Potency,"activity change, negative = inhibition"
Cc1ccc(C(CC(=O)N2CCOCC2)c2ccco2)cc1 (stereo not given),"inconclusive: 50.1 µM [inhibitor, partial curve, poor fit]",
CC1=CC2=C(C=O)C(=O)C(C)(O)C(O)C2=CO1 (stereo not given),,inactive: 9.71%
O=C(CC1CCCCC1)NCCc1noc(C2CC2)n1,,inactive: 16.4%
CC1(C)SC(=S)N(/N=C/c2ccc(O)cc2)C1N(O)C(=O)Nc1ccc([N+](=O)[O-])cc1 (stereo not given),"inconclusive: 35.5 µM [inhibitor, partial curve, poor fit]",
CN(C)/C=C/C(=O)c1ccc(F)cc1F,"inconclusive: 112 µM [inhibitor, single point]",
CCOC(=O)C1CCN(C(=O)c2ccc3c(=O)n4nc(Nc5ccccc5)sc4nc3c2)CC1,"inconclusive: 126 µM [inhibitor, partial curve, poor fit]",
Cc1nc(NC(=O)c2ccc(Cl)cc2)sc1Cc1ccc2c(c1)OCO2,"inconclusive: 44.7 µM [inhibitor, partial curve, poor fit]",
COc1cc(C(c2c(C)[nH][nH]c2=O)c2c(C)[nH][nH]c2=O)ccc1OS(=O)(=O)c1ccccc1,,inactive: 13.4%
O=c1oc2ccc(Cl)cc2cc1-c1nc(-c2ccccc2)cs1,"inconclusive: 5.01 µM [inhibitor, partial curve, poor fit]",
COc1ccccc1C(=O)OC(c1ccc(NC(=O)c2ccc(OC(F)F)cc2)cc1)(C(F)(F)F)C(F)(F)F,"inconclusive: 112 µM [inhibitor, single point]",
COc1cccc(CNC(=O)CN2C(=O)CSc3ccc(S(=O)(=O)N4CCOCC4)cc32)c1,,inactive: 11.8%
O=C(Nc1cc(Cl)ccc1O)c1snnc1-c1ccccc1,"inconclusive: 35.5 µM [inhibitor, full curve, poor fit]",
O=C(NCc1ccc(F)cc1)c1c2c(nc3ccccc13)CCC2,"inconclusive: 11.2 µM [inhibitor, full curve, poor fit]",
CC(Oc1ccc(Br)cc1)C(=O)Nc1ccc(S(=O)(=O)N(C)C2CCN(C)CC2)cc1 (stereo not given),"inconclusive: 100 µM [inhibitor, single point]",
O=C(NCc1ccccc1)C1Cc2c(-c3cccc(F)c3)ccnc2O1 (stereo not given),,inactive: -11.2%
N#CCc1nc(-c2cc3ccccc3oc2=O)cs1,"inconclusive: 70.8 µM [inhibitor, partial curve, poor fit]",
CCc1ccc(-c2nc(SCC(=O)c3c(N)n(C4CC4)c(=O)[nH]c3=O)n[nH]2)cc1,"inconclusive: 79.4 µM [inhibitor, partial curve, poor fit]",
CC(/C=N/n1c(-c2ccc(C)cc2)n[nH]c1=S)=C\c1ccco1,"inconclusive: 20 µM [inhibitor, partial curve, poor fit]",
CC(NC(=S)Nc1ccc(OC(F)F)c(Cl)c1)C(C)(C)C (stereo not given),"inconclusive: 44.7 µM [inhibitor, partial curve, poor fit]",
COc1cccc(CNCCc2c[nH]c3ccccc23)c1OCc1ccccc1F,"inconclusive: 50.1 µM [inhibitor, partial curve, poor fit]",
Cc1cccc(C)c1NC(=O)NC1(C(=O)N2CCCC2)CCCCC1,"inconclusive: 141 µM [inhibitor, partial curve, poor fit]",
C[Si](C)(C)C#C/C=C/S(=O)(=O)c1ccccc1,"inconclusive: 15.8 µM [inhibitor, partial curve, poor fit]",

Structure (SMILES),Potency,"activity change, negative = inhibition"
FC(F)(F)c1ccccc1-c1cncnc1NCCN1CCOCC1,active: 17.8 µM,
COc1ccc(Cl)cc1NC(=O)c1ncoc1-c1ccc(OC)c(OC)c1,,inactive: 29.5%
CC(c1cccc(NC(=O)c2ccccc2)c1)N(C)CC(=O)NC(=O)Nc1ccccc1 (stereo not given),"inconclusive: 20 µM [inhibitor, partial curve, poor fit]",
N#CC1=C(S)N(c2ccccc2)C(c2ccc(-c3cc(Cl)ccc3Cl)o2)NC1=O (stereo not given),"inconclusive: 50.1 µM [inhibitor, partial curve, poor fit]",
N#CC(Cc1cccnc1)C(=O)Nc1ccccc1Cl (stereo not given),,inactive: 31.4%
O=C(CSc1nnc(Cc2ccccc2)c(=O)[nH]1)Nc1ccccc1,"inconclusive: 5.62 µM [inhibitor, full curve, poor fit]",
NC(=O)c1ccccc1NC(=O)CCn1c(=S)oc2ccccc21,"inconclusive: 2.82 µM [inhibitor, full curve, poor fit]",
COCCn1cnc2c1c(=O)n(Cc1ccc(C(=O)OC)cc1)c(=O)n2Cc1ccccc1,"inconclusive: 70.8 µM [inhibitor, partial curve, poor fit]",
O=C(CN1C(=O)S/C(=C\c2ccc(-c3cc(C(=O)O)ccc3Cl)o2)C1=O)Nc1ccc2c(c1)OCO2,"inconclusive: 50.1 µM [inhibitor, partial curve, poor fit]",
CC(=O)c1ccc(NC(=O)C2CCCN(S(=O)(=O)c3ccc(Br)s3)C2)cc1 (stereo not given),"inconclusive: 56.2 µM [inhibitor, partial curve, poor fit]",
CC(=O)Nc1ccc(-c2csc(NC3CC3)n2)c(F)c1,active: 14.1 µM,
COc1cccc(S(=O)(=O)NCC(=O)Nc2ccc(C(C)(C)C)cc2)c1,,inactive: -3.14%
Cc1ccc(-c2cc(C(=O)O)c3cc(Br)ccc3n2)o1,active: 56.2 µM and active: 15.8 µM,
CCOc1ccc(N(CC)C(=O)c2cc3c(s2)-c2ccc(Cl)cc2SC3)cc1,,inactive: 34.4%
CNC(=O)CCC[C@@H]1[C@H]2CCCN3CCC[C@@H](CN1C(C)=O)[C@@H]23,,inactive: 22.3%
Cc1cccc(-c2ccc3c(c2)C(=O)N2CC[C@H](NC(=O)COCC(=O)O)[C@H]2C(=O)N3)c1C,,inactive: -23.2%
CCCOc1ccc(C(=O)Nc2cc(-c3nn4c(C)nnc4s3)ccc2C)cc1,,inactive: 457%
Cc1ccc(C(=O)NCCSc2c[nH]c3ccccc23)cc1C,"inconclusive: 50.1 µM [inhibitor, partial curve, poor fit]",
Cc1ccn2c(Nc3ccc4c(c3)OCO4)c(-c3ccc(C)o3)nc2c1,"inconclusive: 56.2 µM [inhibitor, partial curve, poor fit]",
O=C(c1cc2occc2n1Cc1ccccc1F)N1CCSCC1,"inconclusive: 44.7 µM [inhibitor, partial curve, poor fit]",
O=C(O)c1ccc(/C=N/NC(=S)NC2CCCCC2)cc1,"inconclusive: 31.6 µM [inhibitor, partial curve, poor fit]",
Cc1cc(C)cc(NC(=O)CSc2oc(-c3cccs3)nc2S(=O)(=O)c2ccc(Br)cc2)c1,"inconclusive: 50.1 µM [inhibitor, partial curve, poor fit]",

Structure (SMILES),Potency,"activity change, negative = inhibition"
C=CCC1(CC=C)CCCN1C(=O)c1ccc2oc(CCCC)nc2c1,,inactive: -2.62%
CC(=O)CCc1oc2c([N+](=O)[O-])cccc2c1-c1ccc(C)o1,"inconclusive: 50.1 µM [inhibitor, partial curve, poor fit]",
CC(=O)N1C(C(=O)O)CSC1c1cccc(C)c1 (stereo not given),"inconclusive: 50.1 µM [inhibitor, single point]",
OCCN1CCN(C(=S)c2ccc(Br)cc2)CC1,,inactive: -17%
O=[N+]([O-])c1ccc(NC(=S)Nc2ccc3c(c2)CCC3)cc1,active: 39.8 µM,
CC(=O)Nc1nc(C)c(Oc2ccc(Cl)cc2Cl)c(=O)[nH]1,"inconclusive: 79.4 µM [inhibitor, single point]",
Cn1c(=O)[nH]c(=O)c2c1nc(SCCCO)n2CCCc1ccccc1,"inconclusive: 50.1 µM [inhibitor, partial curve, poor fit]",
O=C(/C=C/c1ccc2c(c1)OCO2)NCc1ccncc1,"inconclusive: 25.1 µM [inhibitor, partial curve, poor fit]",
COCCN1Cc2ccc(Nc3ccc(OC)cc3)nc2C(C)(C(=O)NC2COC2)C1 (stereo not given),,inactive: -15.2% [at 176 µM]
CS(=O)(=O)Cc1cccc(C(=O)Oc2ccc(C34CC5CC(CC(C5)C3)C4)cc2)c1,"inconclusive: 89.1 µM [inhibitor, single point]",
Cc1ccc(C)c(NC(=O)c2ccc3c(c2)NC(=O)C2CCCN32)c1 (stereo not given),"inconclusive: 28.2 µM [inhibitor, partial curve, poor fit]",
COc1cc(OC)c(CN2CCC(Cc3ccccc3)CC2)cc1Br,active: 1 µM,
CSC1=N/C(=C\c2cccc(F)c2)C(=O)S1,"inconclusive: 79.4 µM [inhibitor, partial curve, poor fit]",
COC(=O)c1sc2cccc(F)c2c1S(=O)(=O)NC(C)c1ccccc1 (stereo not given),"inconclusive: 17.8 µM [inhibitor, partial curve, poor fit]",
COC(=O)CNC(=O)c1ccc(CSC)cc1,"inconclusive: 126 µM [inhibitor, single point]",
Cn1nccc1C(=O)OCC(=O)Nc1ccc(S(N)(=O)=O)cc1,"inconclusive: 3.55 µM [inhibitor, full curve, poor fit]",
CCN1C(=O)[C@@H]2[C@@H](c3ccc(-c4ccc(C(C)=O)cc4)cc3)N3CCC[C@@]3(C(=O)OC)[C@@H]2C1=O,"inconclusive: 14.1 µM [inhibitor, partial curve, poor fit]",
COC(=O)CSc1nc(N2CCCC2)c2c(c1C#N)CCCC2,,inactive: -22.1%
NS(=O)(=O)c1ccc(F)c(C(=O)NCc2nc(C3CCCCC3)no2)c1,,inactive: 28.1%
CCOC(=O)/C=C1/SCC(=O)N1Cc1ccc(Br)cc1,,inactive: 0.448%
COc1ccc(S(=O)(=O)NCc2ccc(C(=O)N3CCN(c4ccccn4)CC3)cc2)cc1,"inconclusive: 112 µM [inhibitor, partial curve, poor fit]",
